## Percent effect of library compounds

Source: ChEMBL document CHEMBL3988442, “University of Dundee, Small-Polar-MMV Screening Library” (2021).

Mtb glucose medium: 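Whole-cell growth test on Mycobacterium tuberculosis, read after 3 days in glucose-containing 7H9 medium; the read-out is not stated. Concentration: 50 µM. The record gives no direction; compounds that gave an IC50 in retests scored well above the rest, so higher reads as more growth inhibition. Of about 69,000 compounds tested this way, about 760 (1.1%) reached 50% or more in at least one test.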
Mtb cholesterol medium: 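Whole-cell growth test on Mycobacterium tuberculosis, read after 4 days in a medium based on cholesterol and the lipid DPPC; the read-out is not stated. Compounds at 50 µM. Direction is inferred from retests: higher values go with more growth inhibition. Size under these conditions: about 69,000 compounds, about 370 of them at 50% or above in at least one test.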

Values are the deposited “Percent Effect”, in %. How 0% and 100% were set is not recorded. Most values in the screen are low, and negative values occur. This is an unselected part of the compounds tested. Two or more numbers in one place are separate tests of the same structure; such repeats can differ widely.

| # | Compound | Mtb glucose medium | Mtb cholesterol medium |
|---|---|---|---|
| 1 | `CC(C)NC(=O)N1CCc2c(CNc3ncccn3)cncc2C1.Cl` | -5.85% & 4.819% | -21.54% |
| 2 | `CC(=O)NCC1CCN(CC2CCOc3ccccc3C2)CC1` (centres undefined) | -9.929% & 8.475% | 4.198% |
| 3 | `c1ccc2sc(N3CCCC4(CCOC4)C3)nc2c1` (centres undefined) | 12.01% | 16.9% |
| 4 | `COC(=O)c1cccc(CNC(=O)CCC(F)(F)F)c1` | 25.03% & 40.76% | 13.66% |
| 5 | `CC(C)N1CCC(C(=O)NC[C@H]2CCc3ccccc3O2)CC1` | 0.08041% & -26.87% | -17.06% |
| 6 | `CC(=O)OC1CN(c2nc3c(Cl)cccc3s2)C1` | -19.84% | 4.106% |
| 7 | `Cc1ccc(CN2CCOC3(COCCN(C(C)C)C3)C2)s1.O=C(O)C(F)(F)F.O=C(O)C(F)(F)F` (centres undefined) | -6.968% & -9.205% | -19.27% & -68.54% |
| 8 | `O=C(NC1CCCCC1)c1nnc2ccc(N3CCOCC3)cc2n1` | -38.07% | -4.942% |
| 9 | `CCc1ccc(-n2nnc(C(=O)O)c2-c2ccncc2)cc1` | -14.19% | -4.268% |
| 10 | `O=C(CSC1=NS(=O)(=O)c2cc(F)ccc2N1)Nc1cccc(Cl)c1` | 20.54% | 4.801% |
| 11 | `Cn1cccc1C(=O)N1CCN(Cc2cccnc2)c2ncccc2C1.O=C(O)C(F)(F)F.O=C(O)C(F)(F)F` | 12.5% | -0.7923% |
| 12 | `Cc1noc(C)c1CN1CC2(CCN(C(=O)c3cc[nH]n3)C2)CC1=O` (centres undefined) | 2.439% & 0.4182% | 2.525% |
| 13 | `Cc1cnn(CC2CCCN2Cc2nccn2CC(F)(F)F)c1` (centres undefined) | 5.328% | -7.316% |
| 14 | `Cc1cc(NCC2CCCCC2)n2ncnc2n1` | 8.436% | -5.162% & 9.94% |
| 15 | `CCOC(=O)CSc1nnc([C@@H](N)C(C)C)o1.Cl` | -22.19% & 2.768% | -9.758% |
| 16 | `Cc1cnn(C2CCCN(C(=O)c3cc(-c4ccco4)[nH]n3)C2)c1` (centres undefined) | 15.4% & 2.089% | -0.1074% |
| 17 | `CC(Cn1cccn1)NCc1nc(-c2ccc3c(c2)OCO3)no1` (centres undefined) | 7.4% | -9.928% |
| 18 | `CNc1oc(-c2ccc(OC)c(S(=O)(=O)N3CCCC3)c2)nc1C#N` | -10.7% | -20.81% |
| 19 | `CCOc1ccc(C(=O)N2CCCS2(=O)=O)cc1OC` | -39.18% | -3.445% |
| 20 | `Cc1ccc(-c2cccc(-c3ccn(CCN4CCCC4)n3)c2)nn1` | 0.3567% | 13.33% |
| 21 | `O=C(NCCN1CCCCCC1=O)NCc1ccc(Cl)s1` | 20.31% | -10.92% & 3.751% |
| 22 | `O=C1CC(c2ccc(C(=O)O)cc2)c2ncn(-c3ccc(F)cc3)c2N1` (centres undefined) | 4.88% | -0.2443% & -4.012% |
| 23 | `CCNC(=O)C1CCCN1S(=O)(=O)c1sc(=O)[nH]c1C` (centres undefined) | 6.623% & -1.043% | -1.87% |
| 24 | `CN(Cc1cc[nH]n1)C(=O)c1cn(Cc2c(F)cccc2F)nn1` | -0.6998% & 29.14% | -8.388% |
| 25 | `O=C(NCC(F)F)N1CCC(n2ccc(C(F)(F)F)n2)CC1` | 35% & 22.16% | 26.24% |
| 26 | `Cn1cc(N2CCCC(Oc3ccc(F)cc3Cl)C2=O)cn1` (centres undefined) | -9.403% | -2.263% |
| 27 | `CCc1csc(C2CCCN(C(=O)c3ccc(OC)nn3)C2)n1` (centres undefined) | -7.781% | -11.41% |
| 28 | `CC1=C(CCN2CC[C@@H](N3CCC(O)CC3)[C@H](O)C2)C(C)(C)CCC1` | 16.65% | -3.21% |
| 29 | `Cn1ncc(NC(=O)c2noc3c2CCCC3)c1C(N)=O` | -7.223% | -7.478% |
| 30 | `c1ccc(-n2cc(CNC3CCc4ncnn4C3)nn2)cc1` (centres undefined) | 11.69% | -1.225% |
| 31 | `N[C@@H]1CCN(Cc2cccc(N3CCOCC3)c2)C[C@H]1O` | -24.52% | -9.581% |
| 32 | `CCOC(C)C(=O)NCc1cccc(CN2CCCCCC2)c1` (centres undefined) | 39.59% | 8.397% |
| 33 | `O=C(O)C(F)(F)F.O=C(O)C(F)(F)F.O=C1CC2(CCN(Cc3ccccn3)C2)CN1c1cccnc1` (centres undefined) | 3.817% & -0.3311% | 9.735% |
| 34 | `CCN1CCN(C(C)CNC(=O)Nc2nc3ccccc3s2)CC1` (centres undefined) | 25.29% | 17.02% |
| 35 | `Cc1ccc(CN2CCC3(CCC(C(=O)N(C)C)O3)CC2)o1.O=C(O)C(F)(F)F` (centres undefined) | -14.58% | -16.12% |
| 36 | `COC(=O)N1CCc2ccccc2C1C(=O)NCc1ccccn1` (centres undefined) | -4.12% & -3.998% | 10.5% |
| 37 | `COCC(=O)NC(c1ccc(Cl)cc1)c1noc(C)n1` (centres undefined) | 3.629% & 24.82% | 1.459% |
| 38 | `N#Cc1cccn(CCOc2ccc(Cl)cc2)c1=O` | -6.166% & 8.064% | -19.2% |
| 39 | `CCC[C@@H]1CN(C(=O)c2cc(-c3cccs3)n(C)n2)C[C@H]1NS(C)(=O)=O` | 14.76% | -1.814% |
| 40 | `CN(CC(=O)NCC1CCCO1)Cc1nc2c(s1)CCCC2` (centres undefined) | -16.29% | -12.99% |
| 41 | `c1ccc(OCc2noc(CN3CCN(C4CCCC4)CC3)n2)cc1` | -24.27% | -20.18% |
| 42 | `CCC1CCCCN1CCc1ccncc1` (centres undefined) | -36.12% | 4.493% & 6.403% |
| 43 | `[H][C@]12CCN(C(=O)COC)[C@@]1([H])CC[C@H](COCC1CCOCC1)O2` | -10.34% & -1.306% | 3.186% |
| 44 | `CN1CCN(Cc2cnc3n2CCN(C(=O)c2ccncc2)C3)CC1` | -1.661% | 3.258% |
| 45 | `CN(C)c1ccc(C(=O)N2CCCCC2CC(N)=O)c(F)c1` (centres undefined) | 0.3419% | -3.079% |
| 46 | `Cc1ccc(F)c(-n2nnc(C(=O)O)c2-c2ccncc2)c1` | -4.402% & -9.33% | -16.88% |
| 47 | `Cc1nn(C)c(C)c1OCC(=O)NCc1cccc(C(=O)O)c1` | -13.69% | -19.8% |
| 48 | `Cc1ccccc1CC1(CO)CCCN(c2ncccc2C#N)C1` (centres undefined) | 28.78% | 32% |
| 49 | `CC(C)OCCCNC(=O)CS(=O)(=O)Cc1ccc(C(C)(C)C)cc1` | -3.976% | -16.06% |
| 50 | `CCc1nc(CN2CCOC(Cn3nc(C)nc3C)C2)no1` (centres undefined) | -13.18% | -28.15% |
| 51 | `Fc1ccc(-c2cnc(CN3CCOC(Cn4cccn4)C3)o2)cc1` (centres undefined) | -25.12% | -18.57% |
| 52 | `CN(Cc1ccco1)Cc1cnc2n1CCN(c1ccccn1)CC2.O=C(O)C(F)(F)F.O=C(O)C(F)(F)F` | -22.02% & 0.2296% | -12.33% |
| 53 | `CCOCC1CN(C(=O)COc2ccccc2)Cc2cn(C)nc21` (centres undefined) | -1.749% & 28.14% | -4.342% & -3.318% |
| 54 | `CN(C)c1ncc(NC(=O)c2ccccc2C(F)(F)F)cn1` | -5.969% | -2.91% |
| 55 | `CCC(C)NS(=O)(=O)Cc1cccc(NC(=O)C2=CCCC2)c1` (centres undefined) | -4.818% | 8.713% |
| 56 | `CCc1ncc(C(=O)NCCNC(=O)Cc2ccc(F)cc2)s1` | 14.8% | 0.8269% |
| 57 | `c1cnnc(N2CCCC2CNCc2nc(-c3ccsc3)no2)c1` (centres undefined) | 13.94% | 14.41% |
| 58 | `Nc1nnnn1NCc1ccccc1C(F)(F)F` | 7.946% | 10.23% |
| 59 | `COc1cc(C(=O)N2CCCC(CNS(C)(=O)=O)C2)ccc1C` (centres undefined) | 2.016% | -19.37% |
| 60 | `Cc1cc(C2CCC2)nc(N(C)Cc2ncccc2C)n1` | -38.76% | -34.07% |
| 61 | `c1cnnc(N2CCCC2CNc2ncnc3ccccc23)c1` (centres undefined) | -23.99% | -10.23% |
| 62 | `Cc1noc(CNC2CCCN(Cc3noc(C4CC4)n3)C2)n1` (centres undefined) | -52.6% & -3.038% | -20.02% |
| 63 | `CC(=O)N1CCC2(CC1)CC(Oc1ccccc1)CO2` (centres undefined) | -15.19% | -29.93% |
| 64 | `COc1ccc2cc(NC(=O)CCNc3ncccn3)cnc2c1` | -16.32% | -14.19% |
| 65 | `Cc1ncc(CN2CCc3c(nc4cc(C5CC5)nn4c3O)C2)n1C` | 13.66% | 0.09772% |
| 66 | `[H][C@@]12CS(=O)(=O)C[C@]1([H])N(C(=O)c1cc(C(C)C)no1)CCN2CC1CC1` | -5.416% | -6.987% |
| 67 | `O=c1c2cccc(C(F)(F)F)c2ncn1CCN1CCNCC1` | 8.645% | 0.2618% |
| 68 | `CC(C)OCCC(=O)NCC(O)c1c(Cl)cccc1Cl` (centres undefined) | 31.62% | 4.133% |
| 69 | `O=C(Cn1cc(C(=O)O)cn1)Nc1c(Cl)cccc1Cl` | 8.289% | 13.29% |
| 70 | `CC1CCN(C(=O)CSCc2nc(C3CC3)no2)CC1` | -4.979% | 8.234% |
| 71 | `CCS(=O)(=O)c1ccccc1N1CCC(NC(=O)C(C)C)CC1` | -2.223% & -27.07% | 15.35% |
| 72 | `COCCn1cc(C(=O)N2CCCC2c2cccc(C)c2)ccc1=O` (centres undefined) | 5.354% | -9.213% & -7.136% |
| 73 | `Cc1nsc(C(=O)NCCc2ccc(S(N)(=O)=O)cc2)n1` | 21.69% | 2.64% |
| 74 | `Cc1ccccc1CSc1nc(N)cc(N2CCCC(C(N)=O)C2)n1` (centres undefined) | -7.752% | -13.91% |
| 75 | `O=C(NCCN1CCCC1)c1nc2c(o1)CN(c1ncccn1)C2` | -4.495% & -1.535% | 19.05% |
| 76 | `COCc1cccc(S(=O)(=O)N2CCSCC2)c1` | -11.69% | 5.893% |
| 77 | `CC(=O)N(C)CC(=O)Nc1cc(C(F)(F)F)c[nH]c1=O` | -6.826% | -17.81% |
| 78 | `CCCC(=O)NCC(Cc1cccc(F)c1)N1CCCC1=O` (centres undefined) | -2.886% | -1.029% |
| 79 | `Cc1cc(N2CCOC(C)(C(=O)N(C)C)C2)ncn1` (centres undefined) | 19.36% | -3.761% |
| 80 | `Cl.Cl.Cn1cnc2c(-c3cccnc3)nc(C3CCNCC3)cc21` | -23.64% | -39% |
| 81 | `Cc1ccnc(NC(=O)c2cnc(C3CCCNC3)cn2)c1` (centres undefined) | 32.98% | 4.062% & 16.49% |

For reference, 6 entries once more:

Compound,Mtb glucose medium,Mtb cholesterol medium
O=c1c2cccc(C(F)(F)F)c2ncn1CCN1CCNCC1,8.645%,0.2618%
CN(CC(=O)NCC1CCCO1)Cc1nc2c(s1)CCCC2 (centres undefined),-16.29%,-12.99%
CCc1ccc(-n2nnc(C(=O)O)c2-c2ccncc2)cc1,-14.19%,-4.268%
CN(C)c1ncc(NC(=O)c2ccccc2C(F)(F)F)cn1,-5.969%,-2.91%
O=C(NCCN1CCCC1)c1nc2c(o1)CN(c1ncccn1)C2,-4.495% & -1.535%,19.05%
Cc1cc(N2CCOC(C)(C(=O)N(C)C)C2)ncn1 (centres undefined),19.36%,-3.761%